# Assay results from PMC10090951.
# Amino acid sequences for entries named in this document (tags omitted).
# UniProt P84077: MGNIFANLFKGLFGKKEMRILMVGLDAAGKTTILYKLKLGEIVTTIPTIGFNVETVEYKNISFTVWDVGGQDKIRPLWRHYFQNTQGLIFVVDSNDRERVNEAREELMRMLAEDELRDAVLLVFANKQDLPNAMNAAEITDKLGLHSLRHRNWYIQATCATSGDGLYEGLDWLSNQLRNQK
# These are yes or no findings as the source states them, for the method shown. Binding seen in cells or lysates may run through a third protein. Some results given as binding are weak or reduced against the parent protein; the word gives no strength. Where a sequence is shown, tags or fusion partners need not be part of it.
# Molecular target: T1, Glutathione S Transferase (GST)‐tagged GAT domain of GGA3 (UniProt Q9NZ52)
# T1 sequence: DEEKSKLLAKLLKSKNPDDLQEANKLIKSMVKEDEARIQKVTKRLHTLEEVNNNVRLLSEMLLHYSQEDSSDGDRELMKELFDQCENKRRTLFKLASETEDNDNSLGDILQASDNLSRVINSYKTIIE
# Assay: pull-down; GST‐GGA3 GAT (~40 μg) prebound to glutathione‐Sepharose 4B beads, incubated with equal amounts of HeLa lysates at 4°C for 1 h; lysis buffer 1% Triton X‐100, 50 mM Tris pH 7.5, 100 mM NaCl, 2 mM MgCl2, 0.1% SDS, 0.5% sodium deoxycholate, 10% glycerol; cells serum starved and stimulated with EGF for the indicated times (parental, shControl and shGIV cells); bound Arf1 detected by immunoblot; only the target purified
substance,measurement,value
Arf1 (from UniProt P84077 1-181),binding,binds
